Experimental data: PubChem BioAssay AID602196 (INSERM, 2012)
Screen: 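Genes whose knock-down alters cisplatin killing of lung cancer cells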. Cells: human A549 lung cancer cells. Knock-down reagent: siRNA pair against human genes. Duration: 48 h transfection before cisplatin; time from cisplatin to read-out not stated. Treatment: cisplatin at a dose killing half of control-siRNA cells; exact dose and duration not given. Read-out: 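Shift in cisplatin death relative to control siRNA, from -50 (all cells die) to +50 (no cells die); siRNAs harmful on their own scored 0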. Scale: two-siRNA summed score (-2 to +2): higher = both siRNAs protect from cisplatin killing; -2 means both sensitise; mean protection from cisplatin (shift in death) and protection from cisplatin (shift in death), siRNA C: higher = protection from cisplatin killing. Hit rule: 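Each siRNA scores 0 if harmful alone by LDH or WST-1, otherwise +1 if it reduces and -1 if it increases cisplatin killing; a gene is active when both siRNAs agree (sum +2 or -2)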. Meaning of the calls: active = both siRNAs shift cisplatin killing the same way; inactive = no consistent shift, or siRNA harmful alone.
The whole screen tested about 23,000 reagents; this is a part drawn at random. In the full data, 455 (2%) got an active call. 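Active includes both protection and sensitisation; some change values fall well beyond the stated -50 to +50 range.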 Entries without a mark were called inactive. Reagents against one gene are numbered here. Not all columns of the deposit are shown. Reagent sequences are not shown. Not stated in the record: the amount of reagent.

gene | reagent no. | two-siRNA summed score (-2 to +2) | mean protection from cisplatin (shift in death) (%) | protection from cisplatin (shift in death), siRNA C (%)
PTRH2 (peptidyl-tRNA hydrolase 2) | 1 | 0 | 5.2 | 1
PTRH2 (peptidyl-tRNA hydrolase 2) | 2 | 0 | 17 | 12.4
SMARCA5 (SNF2 related chromatin remodeling ATPase 5) | 1 | 1 | 8.3 | -0.9
CPLX4 (complexin 4) | 1 | 1 | 15.2 | 23.4
PELI2 (pellino E3 ubiquitin protein ligase family member 2) | 1 | 0 | -3.2 | 1.1
KRT71 (keratin 71) | 1 | 0 | -1.7 | -5.7
LOXL4 (lysyl oxidase like 4) | 1 | 0 | -12.6 | -11.4
EXT1 (exostosin glycosyltransferase 1) | 1 | 0 | 8.3 | 17.1
LINC01011 (long independently transcribed non-coding RNA 1011) | 1 | 1 | 21.1 | 37.3
LOC391498 | 1 | 1 | 15.6 | 11.5
SACK1C (scaffolding CK1 anchoring protein C) | 1 | 0 | 9.9 | 12.8
CST7 (cystatin F) | 1 | 1 | 12.6 | 24
CNIH4 (cornichon family member 4) | 1 | 0 | 13.8 | 18.1
LOC391340 | 1 | 1 | 10.3 | 17.6
ESYT1 (extended synaptotagmin 1) | 1 | 0 | 6.8 | 5.9
RBM48 (RNA binding motif protein 48) | 1 | 0 | 5.8 | -2.9
DPP10 (dipeptidyl peptidase like 10) | 1 | 0 | -3.1 | 5.7
LOC389469 | 1 | 1 | 12.2 | 6.7
ATXN7 (ataxin 7) | 1 | 1 | 9 | -5.3
ARHGEF6 (Rac/Cdc42 guanine nucleotide exchange factor 6) | 1 | -1 | -4.3 | -12.9
ZNF589 (zinc finger protein 589) | 1 | 0 | 0 | 8.2
IHO1 (interactor of HORMAD1 1) | 1 | 0 | 6.9 | 4.5
HES1 (hes family bHLH transcription factor 1) | 1 | 0 | 1.7 | 0.4
RNASET2 (ribonuclease T2) | 1 | 0 | 2 | 5.3
LOC340501 | 1 | 0 | 0 | -8.2
R3HDM1 (R3H domain containing 1) | 1 | 0 | 13.4 | 2.8
GPR180 (G protein-coupled receptor 180) | 1 | -1 | -15.2 | -3.4
ZNF621 (zinc finger protein 621) | 1 | 1 | 17.5 | 13.1
MUC7 (mucin 7, secreted) | 1 | 0 | 8.8 | 2.2
MAPK8IP1 (mitogen-activated protein kinase 8 interacting protein 1) | 1 | 0 | 3.3 | 3.1
TOP6BL (TOP6B like initiator of meiotic double strand breaks) | 1 | 0 | 12.9 | 18
TSC2 (TSC complex subunit 2) | 1 | 0 | -1.3 | -3.7
MAGEF1 (MAGE family member F1) | 1 | 0 | 11.2 | 16
HGH1 (HGH1 cochaperone) | 1 | 0 | 7.5 | 7.3
CP (ceruloplasmin) | 1 | 0 | 5.4 | 9.3
KANK4 (KN motif and ankyrin repeat domains 4) | 1 | 0 | 10.7 | 3.4
GPRIN1 (G protein regulated inducer of neurite outgrowth 1) | 1 | 1 | 7.3 | 5.6
TGIF2LX (TGFB induced factor homeobox 2 like X-linked) | 1 | 0 | 13.6 | 11.4
TFAP2B (transcription factor AP-2 beta) | 1 | 0 | 4.9 | 1.9
